In the assay the test system is CD2F1 mice, L1210 leukemia sc, survival T/C. Kind of assay: NCI In Vivo Anticancer Drug Screen. Data for tumor model L1210 Leukemia (subcutaneous) in CD2F1 (CDF1) mice. The settings on record: higher T/C = longer survival. The method, boiled down:
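T/C ratio: treated-group survival or tumor size over vehicle-control group measurement, in mice carrying transplanted tumors.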

Setting [1] is: T/C endpoint: median survival time, dose: 108.0 mg/kg/injection, schedule: Q01DX Z (sc), vehicle: steroid suspending solution.
Where [2] appears, read: T/C endpoint: median survival time, dose: 180.0 mg/kg/injection, schedule: Q01DX Z (sc), vehicle: steroid suspending solution.
The mark [3] stands for this setting: T/C endpoint: median survival time, dose: 14.0 mg/kg/injection, schedule: Q01DX Z (sc), vehicle: methylcellulose (MC).
[4] abbreviates: T/C endpoint: median survival time, dose: 23.0 mg/kg/injection, schedule: Q01DX Z (sc), vehicle: methylcellulose (MC).
[5] abbreviates: T/C endpoint: median survival time, dose: 39.0 mg/kg/injection, schedule: Q01DX Z (sc), vehicle: methylcellulose (MC).
Setting [6] is: T/C endpoint: median survival time, dose: 65.0 mg/kg/injection, schedule: Q01DX Z (sc), vehicle: methylcellulose (MC).
[7] abbreviates: T/C endpoint: median survival time, dose: 108.0 mg/kg/injection, schedule: Q01DX Z (sc), vehicle: methylcellulose (MC).

The list is a part of this screen's results and no random one: it is rich in T/C values a quarter to a half above the control, in often repeated tests (any T/C) and in doses without a T/C. Further doses and runs are listed elsewhere. T/C is the treated group as % of the vehicle group. Some entries give survivors of the animals treated and no T/C: the source files T/C as zero there, which appears to mark a toxic dose or a test without result, not a measured value. Some doses without a T/C left all or most animals alive at the check, yet need not have been tolerated: survival well below the control is almost never listed, so the zero probably covers shortened survival too. Counts of survivors are from the toxicity check (mostly the fifth day) where no day follows; animals may have died later. Schedule codes are those of the source, taken here to give the interval after Q, in days (D) or hours (H), and the number of doses after X. Some schedule codes hold Z or #, which are not explained here. Where survival is the endpoint, this PubChem deposit counts one and a half times the control or more as active, and values a quarter to a half above the control carry no call in these data; other NCI protocols may use other cut-offs. Marks such as (2×) say how often a value occurs here. Some entries hold several experiments; the results are listed from low to high. Some T/C values carry the count of animals alive at the toxicity check (mostly the fifth day); without a count, all were alive then.

With `C[C@]12C=CC(=O)C=C1CC[C@@H]1[C@@H]2C(=O)C[C@@]2(C)[C@H]1CC[C@]2(O)C(=O)CO`, the T/C is, setting by setting: (T/C endpoint: median survival time, dose: 65.0 mg/kg/injection, schedule: Q#A X Z (sc), vehicle: water) 131 % of control; under setting [1], 136 % of control; (T/C endpoint: median survival time, dose: 108.0 mg/kg/injection, schedule: Q01DX Z (sc), vehicle: water) 136 % of control; (T/C endpoint: median survival time, dose: 108.0 mg/kg/injection, schedule: Q#A X Z (sc), vehicle: water) 127 % of control; under setting [2], 145 % of control; (T/C endpoint: median survival time, dose: 180.0 mg/kg/injection, schedule: Q#A X Z (sc), vehicle: water) 131 % of control. Further, the T/C is 127 % of control (T/C endpoint: median survival time, dose: 300.0 mg/kg/injection, schedule: Q01DX Z (sc), vehicle: steroid suspending solution); 136 % of control (T/C endpoint: median survival time, dose: 300.0 mg/kg/injection, schedule: Q01DX Z (sc), vehicle: water); 145 % of control (T/C endpoint: median survival time, dose: 300.0 mg/kg/injection, schedule: Q02DX Z (sc), vehicle: water); 131 % of control (T/C endpoint: median survival time, dose: 300.0 mg/kg/injection, schedule: Q#A X Z (sc), vehicle: water); 136 % of control (T/C endpoint: median survival time, dose: 500.0 mg/kg/injection, schedule: Q01DX Z (sc), vehicle: steroid suspending solution); 145 % of control (T/C endpoint: median survival time, dose: 500.0 mg/kg/injection, schedule: Q01DX Z (sc), vehicle: water). In addition, the T/C was 136 % of control (T/C endpoint: median survival time, dose: 500.0 mg/kg/injection, schedule: Q02DX Z (sc), vehicle: water); 127 % of control (T/C endpoint: median survival time, dose: 840.0 mg/kg/injection, schedule: Q01DX Z (sc), vehicle: steroid suspending solution); 127 % of control (T/C endpoint: median survival time, dose: 840.0 mg/kg/injection, schedule: Q01DX Z (sc), vehicle: water); 127 % of control (T/C endpoint: median survival time, dose: 840.0 mg/kg/injection, schedule: Q02DX Z (sc), vehicle: water); 127 % of control (T/C endpoint: median survival time, dose: 840.0 mg/kg/injection, schedule: Q#A X Z (sc), vehicle: water); 127 % of control (T/C endpoint: median survival time, dose: 1400.0 mg/kg/injection, schedule: Q02DX Z (sc), vehicle: water).
`O=C(Nc1ccc(C2=NCCN2)cc1)c1cccc(C(=O)Nc2ccc(C3=NCCN3)cc2)c1`: the survivor count by setting is: (T/C endpoint: median survival time, dose: 5.0 mg/kg/injection, schedule: Q01DX Z (sc), vehicle: methylcellulose (MC)) 0 of 10; (T/C endpoint: median survival time, dose: 8.4 mg/kg/injection, schedule: Q01DX Z (sc), vehicle: methylcellulose (MC)) 3 of 10; under setting [3], 4 of 10; (T/C endpoint: median survival time, dose: 16.0 mg/kg/injection, schedule: Q01DX Z (iv), vehicle: water) 5 of 10; under setting [4], 5 of 10; (T/C endpoint: median survival time, dose: 32.0 mg/kg/injection, schedule: Q01DX Z (iv), vehicle: water) 3 of 10. Further, the survivor count runs as follows: under setting [5], 5 of 10; under setting [6], 3 of 10; under setting [7], 5 of 10. For the same compound, the T/C by setting is: under setting [3], 138 % of control [9 of 10 alive]; under setting [7], 133 % of control [9 of 10 alive].
Take `CN(C)/N=N/c1nc[nH]c1C(N)=O`: the T/C reads like this: (T/C endpoint: mean survival time, dose: 100.0 mg/kg/injection, schedule: Q01DX017 (sc), vehicle: steroid suspending solution) 129 % of control; (T/C endpoint: mean survival time, dose: 108.0 mg/kg/injection, schedule: Q01DX009 (sc), vehicle: steroid suspending solution) 126 % of control; (T/C endpoint: mean survival time, dose: 180.0 mg/kg/injection, schedule: Q01DX009 (sc), vehicle: steroid suspending solution) 135 % of control; (T/C endpoint: mean survival time, dose: 300.0 mg/kg/injection, schedule: Q01DX009 (sc), vehicle: steroid suspending solution) 146 % of control; (T/C endpoint: median survival time, dose: 18.75 mg/kg/injection, schedule: Q01DX009 (sc), vehicle: saline) 125 % of control; (T/C endpoint: median survival time, dose: 25.0 mg/kg/injection, schedule: Q01DX009 (ip), vehicle: saline with Tween-80) 133 % of control. In addition, the T/C is 126 % of control (T/C endpoint: median survival time, dose: 25.0 mg/kg/injection, schedule: Q01DX009 (ip), vehicle: saline); 133 % of control (T/C endpoint: median survival time, dose: 37.5 mg/kg/injection, schedule: Q01DX009 (sc), vehicle: saline); 144 % of control (T/C endpoint: median survival time, dose: 50.0 mg/kg/injection, schedule: Q01DX009 (ip), vehicle: saline with Tween-80); 135 % of control (T/C endpoint: median survival time, dose: 50.0 mg/kg/injection, schedule: Q01DX009 (ip), vehicle: saline); 148 % of control (T/C endpoint: median survival time, dose: 75.0 mg/kg/injection, schedule: Q01DX009 (ip), vehicle: saline); 135 % of control (T/C endpoint: median survival time, dose: 75.0 mg/kg/injection, schedule: Q01DX009 (sc), vehicle: saline). In addition, the T/C was 126 % of control (T/C endpoint: median survival time, dose: 100.0 mg/kg/injection, schedule: Q01DX017 (sc), vehicle: steroid suspending solution, evaluated on day 6); 127 % of control (T/C endpoint: median survival time, dose: 100.0 mg/kg/injection, schedule: Q01DX017 (sc), vehicle: steroid suspending solution, evaluated on day 27); 128 % of control (T/C endpoint: median survival time, dose: 108.0 mg/kg/injection, schedule: Q01DX009 (sc), vehicle: steroid suspending solution); 127 % of control under setting [1]; 135, 158, 172 % of control (T/C endpoint: median survival time, dose: 150.0 mg/kg/injection, schedule: Q01DX009 (sc), vehicle: saline, evaluated on day 30); 148 % of control (T/C endpoint: median survival time, dose: 150.0 mg/kg/injection, schedule: Q01DX009 (sc), vehicle: saline, evaluated on day 45). Besides, the T/C runs as follows: (T/C endpoint: median survival time, dose: 180.0 mg/kg/injection, schedule: Q01DX009 (sc), vehicle: steroid suspending solution) 135 % of control; under setting [2], 133 % of control; (T/C endpoint: median survival time, dose: 300.0 mg/kg/injection, schedule: Q01DX009 (sc), vehicle: saline) 136 % of control (2×); (T/C endpoint: median survival time, dose: 400.0 mg/kg/injection, schedule: Q01DX009 (ip), vehicle: saline with Tween-80) 126 % of control [9 of 10 alive]; (T/C endpoint: median survival time, dose: 400.0 mg/kg/injection, schedule: Q01DX009 (sc), vehicle: saline + alcohol) 128 % of control; (T/C endpoint: median survival time, dose: 600.0 mg/kg/injection, schedule: Q01DX009 (sc), vehicle: saline) 147 % of control. In addition, the T/C (T/C endpoint: median survival time, dose: 1200.0 mg/kg/injection, schedule: Q01DX009 (sc), vehicle: saline + alcohol) was 128 % of control; the T/C (T/C endpoint: median survival time, dose: 1200.0 mg/kg/injection, schedule: Q01DX009 (sc), vehicle: saline) was 143 % of control; the T/C (T/C endpoint: median survival time, dose: 1800.0 mg/kg/injection, schedule: Q01DX009 (sc), vehicle: saline + alcohol) was 128 % of control. In addition, the survivor count (T/C endpoint: median survival time, dose: 833.0 mg/kg/injection, schedule: Q01DX Z (sc), vehicle: carboxymethylcellulose (CMC)) is recorded as 5 of 8.
Consider `S=c1nc[nH]c2c1ncn2C1CCCC1`, for which the survivor count under setting [4] was 3 of 10; the survivor count under setting [5] is recorded as 3 of 10; the survivor count under setting [6] is recorded as 5 of 10; the survivor count under setting [7] is given as 2 of 10; the survivor count (T/C endpoint: median survival time, dose: 180.0 mg/kg/injection, schedule: Q01DX Z (sc), vehicle: methylcellulose (MC)) was 2 of 10; the survivor count (T/C endpoint: median survival time, dose: 300.0 mg/kg/injection, schedule: Q01DX Z (sc), vehicle: methylcellulose (MC)) was 3 of 10. The survivor count (T/C endpoint: median survival time, dose: 500.0 mg/kg/injection, schedule: Q01DX Z (sc), vehicle: methylcellulose (MC)) is recorded as 3 of 10.
As to `Nc1nc2ncn(O)c2c(=O)[nH]1`, the survivor count (T/C endpoint: median survival time, dose: 34.72 mg/kg/injection, schedule: Q01DX009 (ip), vehicle: other) is recorded as 6 of 6.

Source of the values: PubChem BioAssay AID258 (DTP/NCI, 2004).
